{"sequences": {"note": "Sequences of proteins named here, by UniProt entry; tags and fusion partners are left off. A change or cut given only in a name is not applied to a line headed by its entry.", "UniProt P31057": "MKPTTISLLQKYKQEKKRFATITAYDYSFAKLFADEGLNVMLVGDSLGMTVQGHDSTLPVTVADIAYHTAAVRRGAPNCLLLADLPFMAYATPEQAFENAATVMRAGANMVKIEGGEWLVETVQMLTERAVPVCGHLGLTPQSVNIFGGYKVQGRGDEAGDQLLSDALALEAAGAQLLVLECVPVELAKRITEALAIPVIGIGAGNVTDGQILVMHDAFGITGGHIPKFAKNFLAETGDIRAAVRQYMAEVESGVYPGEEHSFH"}, "source": "paper PMC12494878", "binders": {"B1": {"name": "ASP1, a cytosolic L-asparaginase (enzyme, UniProt P38986 1-381)", "chain": "MKSDSVEITTICPDVENSQFVVQSNCPETIPEILKSQNAAVNGSGIACQQRSLPRIKILGTGGTIASKAIDSSQTAGYHVDLTIQDLLDAIPDISKVCDIEYEQLCNVDSKDINEDILYKIYKGVSESLQAFDGIVITHGTDTLSETAFFIESTIDAGDVPIVFVGSMRPSTSVSADGPMNLYQAICIASNPKSRGRGVLVSLNDQISSGYYITKTNANSLDSFNVRQGYLGNFVNNEIHYYYPPVKPQGCHKFKLRVDGKHFKLPEVCILYAHQAFPPAIVNLVADKYDGIVLATMGAGSLPEEVNETCMKLSLPIVYSKRSMDGMVPIANVPKKGSKEDNLIASGYLSPEKSRILLQLCLAGNYTLEEIKHVFTGVYGG"}}, "molecular_target": "1M3U agglomerating mutant fused to YFP, as used for the pull-down (UniProt P31057)", "assay": "affinity purification with mass spectrometry; pull-down of the YFP tag from yeast lysate with magnetic agarose beads (RFP-Trap Magnetic Agarose kit, ChromoTek), in-bead trypsin digestion, LC-MS/MS; enriched fraction of the agglomerating mutant compared with that of the wild type; three biological replicates", "note": "No constants are given. Whether binding was seen depends on the method and setting. Binding seen in cells or lysates may run through a third protein. Here binding means that the protein was enriched with, or labelled near, the bait; the list need not be complete."}
{"binder": "B1", "values": [{"measurement": "binding", "result": "binds"}]}
